Values joined by “and” are separate entries in the source; they are usually repeats but may differ in a detail not shown here. Equal entries are not always repeated. Structures can show the parent of a compound that is named as a salt. ± gives the standard deviation of the averaged measurements. The list shows a part of the results. The data scatter; read single values as rough.

In this assay the test system is Salmonella enterica serovar Typhimurium ST313 D23580. Briefly: normalized bacterial growth (OD600 20 h minus 0 h, interquartile-mean normalized) (fraction of plate interquartile mean); higher = more bacterial growth (less inhibition). To be noted: LPM (pH 5.8, low phosphate, low Mg2+), concentration: 10 µM, temperature: 37 °C.
Regarding `CCCCCCCCCCCCCCCC(=O)NCC(COP(=O)([O-])OCC[N+](C)(C)C)OCC` (racemic) [rac-2-Ethoxy-3-hexadecanamido-1-propylphosphocholine], the normalized bacterial growth was found to be 1.68.
In the case of `CC(C)(C)c1ccc(/C=C/C(=O)Nc2ccc3c(c2)OCCO3)cc1`, the normalized bacterial growth worked out at 0.958.
The same measure for `CNC(=O)[C@H]1O[C@@H](n2cnc3c(N)ncnc32)[C@H](O)[C@@H]1O` [5'-N-Methyl carboxamidoadenosine]: 0.93.
Under `O=C(O)c1ccccc1-c1c2cc(I)c(=O)c(I)c-2oc2c(I)c(O)c(I)cc12` stands 1.17; under `CCc1ccc(CCOc2ccc(CC3SC(=O)NC3=O)cc2)nc1` (stereo unspecified), 1.02; under `CC[n+]1c(/C=C/C=C2/N(C)c3ccccc3C2(C)C)sc2ccccc21`, 0.807.
`CN(C)[C@@H]1C(O)=C(C(N)=O)C(=O)[C@@]2(O)C(O)=C3C(=O)c4c(O)cccc4[C@@](C)(O)[C@H]3C[C@@H]12` came in with a normalized bacterial growth of 0.0571.
The compound `COc1cc2nc(N3CCN(C(=O)OCc4ccccc4)[C@H](C(=O)NC(C)(C)C)C3)nc(N)c2cc1OC` registered a normalized bacterial growth of 0.966.
Turning to `COCCCC/C(=N\OCCN)c1ccc(C(F)(F)F)cc1` [Fluvoxamine maleate], the normalized bacterial growth turned out to be 1.12.
The same measure for `COC(=O)[C@H](c1ccccc1Cl)N1CCc2sccc2C1`: 0.96; for `C[C@]12CCC(=O)C=C1CC[C@@H]1[C@@H]2C(=O)C[C@@]2(C)[C@H]1CC[C@]2(O)C(=O)CO` [Cortisone]: 0.664; for `C[C@]12CCC(=O)C=C1CC[C@@H]1[C@@H]2C(=O)C[C@@]2(C)[C@H]1CC[C@]2(O)C(=O)CO`: 1.07.
For `CO[C@H]1[C@H](OC(=O)c2ccc(C)[nH]2)[C@H](O)[C@@H](Oc2ccc3c(O)c(NC(=O)c4c[nH]c(C(=O)Nc5c(O)c6ccc(O[C@H]7OC(C)(C)[C@@H](OC)[C@H](OC(=O)c8ccc(C)[nH]8)[C@@H]7O)c(C)c6oc5=O)c4C)c(=O)oc3c2C)OC1(C)C`, the normalized bacterial growth came out at 0.814.
The same measure for `CCCCN1CCC(n2c(=O)[nH]c3ccccc32)CC1` [NS 521 oxalate]: 1.1; for `NC(=O)c1ccccc1O`: 1; for `CCOC(=O)N1CCC(=C2c3ccc(Cl)cc3CCc3cccnc32)CC1` [Loratadine]: 0.821.
Under `Nc1nc(F)nc2c1ncn2[C@@H]1O[C@H](COP(=O)(O)O)[C@@H](O)[C@@H]1O` stands 1.14; under `COc1ccc(-c2coc3cc(O)ccc3c2=O)cc1`, 1.04; under `Oc1c(Br)cc(Br)c2cccnc12`, 0.105.
`CCC(=O)O[C@H]1CC[C@H]2[C@@H]3CCc4cc(O)ccc4[C@H]3CC[C@]12C`: the normalized bacterial growth amounted to 1.03.
Take `COc1ccc(CC(C)NCC(O)c2ccc(O)c(NC=O)c2)cc1` (stereo unspecified) [Formoterol]: the normalized bacterial growth is 0.482.
The same measure for `O=C(OCCN1CCOCC1)C1(c2ccccc2)CCCCC1`: 0.782; for `Cc1nnc(NS(=O)(=O)c2ccc(N)cc2)s1`: 1.11.
Under `CN(C)c1ccc(/C=C2/C(=O)Nc3ccccc32)cc1` stands 0.848; under `CCN1CCC[C@H]1CNC(=O)c1c(OC)ccc(Br)c1OC` [Remoxipride Hydrochloride], 1.08.
`COc1ccc(/C=C/C(=O)c2c(O)cc(OC)cc2OC)cc1` registered a normalized bacterial growth of 0.923.
With `C1CCN2C[C@@H]3C[C@@H](CN4CCCC[C@@H]34)[C@H]2C1`, the normalized bacterial growth is 0.997 and 0.843.
Compound `COc1ccc2c(OC)c3ccoc3nc2c1OC` yielded a normalized bacterial growth of 1.1.
For `O=c1cc(-c2ccc(O)c(-c3c(O)cc(O)c4c(=O)cc(-c5ccc(O)cc5)oc34)c2)oc2cc(O)cc(O)c12`, the normalized bacterial growth was 0.746.
The compound `CC1CC(OC(=O)C(O)c2ccccc2)CC(C)(C)N1C` (stereo unspecified) showed a normalized bacterial growth of 1.16.
The same measure for `CC1CC(OC(=O)C(O)c2ccccc2)CC(C)(C)N1C` (stereo unspecified) [Eucatropine hydrochloride]: 1.3; for `OC[C@H]1O[C@@H](n2cnc3c(NCc4ccco4)ncnc32)[C@H](O)[C@@H]1O`: 0.459.
For `Cc1cnc(NC(=O)C2=C(O)c3ccccc3S(=O)(=O)N2C)s1` [Meloxicam sodium], the normalized bacterial growth is 1.26.
`Cc1cnc(NC(=O)C2=C(O)c3ccccc3S(=O)(=O)N2C)s1` [Meloxicam] showed a normalized bacterial growth of 0.613.
Under `O=C(O)CCCc1ccccc1` stands 1.13 and 1.04; under `NC1=NCCN1CC(=O)O`, 0.965.
Under `CC1(C)O[C@@H]2C[C@H]3[C@@H]4CCC5=CC(=O)C=C[C@]5(C)[C@@]4(F)[C@@H](O)C[C@]3(C)[C@]2(C(=O)CO)O1` stands 1.13.
The compound `N=C(N)SCCc1c[nH]cn1` [Imetit dihydrobromide] gave a normalized bacterial growth of 1.07.
Under `C[C@@H]1C[C@H]2[C@@H]3CCC4=CC(=O)C=C[C@]4(C)[C@@]3(F)[C@@H](O)C[C@]2(C)[C@@]1(O)C(=O)CO` stands 0.774; under `OC1(c2ccc(Cl)c(C(F)(F)F)c2)CCN(CCCC(c2ccc(F)cc2)c2ccc(F)cc2)CC1`, 1.33.
Under `O=C(O)COC(=O)Cc1ccccc1Nc1c(Cl)cccc1Cl` [Aceclofenac] stands 1.15.
Under `CC1(O)CC2C(CC1O)C2(C)C` (stereo unspecified) stands 0.801.
The compound `CN1CCN(c2nc3cc(C(F)(F)F)ccc3n3cccc23)CC1` came in with a normalized bacterial growth of 1.04.
The same measure for `O=C(O)/C=C/c1ccc(Cn2ccnc2)cc1` [Ozagrel hydrochloride]: 1.27.
The same measure for `O=C(O[C@@H]1Cc2c(O)cc(O)cc2O[C@@H]1c1cc(O)c(=O)c2c(O)c(O)cc([C@H]3Oc4cc(O)cc(O)c4C[C@H]3O)c2c1)c1cc(O)c(O)c(O)c1`: 1.06; for `COC(=O)CC[C@@H](C)[C@H]1CC[C@H]2[C@@H]3CC[C@@H]4C[C@H](O)CC[C@]4(C)[C@H]3C[C@H](O)[C@]12C`: 0.751.
Under `COC(=O)C1=CO[C@@H](C)[C@@H]2CN3CCc4c([nH]c5ccccc45)[C@@H]3C[C@H]12` stands 0.734; under `C[C@@H]1O[C@@H](O[C@H]2[C@H](O[C@H]3CC[C@@]4(C)[C@@H](CC[C@]5(C)[C@@H]4CC=C4[C@@H]6CC(C)(C)CC[C@]6(C(=O)O[C@@H]6O[C@H](CO[C@@H]7O[C@H](CO)[C@@H](O[C@@H]8O[C@@H](C)[C@H](O)[C@@H](O)[C@H]8O)[C@H](O)[C@H]7O)[C@@H](O)[C@H](O)[C@H]6O)CC[C@]45C)[C@]3(C)CO)OC[C@H](O)[C@@H]2O)[C@H](O)[C@H](O)[C@H]1O`, 1.15; under `C[C@H]1CC2C3CCC4=CC(=O)C=C[C@]4(C)[C@@]3(F)[C@@H](O)C[C@]2(C)[C@@]1(O)C(=O)COP(=O)(O)O` (stereo partly specified), 0.99.
Turning to `CCOC(=O)CCCCCCCCCCCCC1C=CCC1` (stereo unspecified), the normalized bacterial growth came to 1.03.
The same measure for `O=c1c(-c2ccc(O)cc2)coc2c([C@@H]3O[C@H](CO)[C@@H](O)[C@H](O)[C@H]3O)c(O)ccc12`: 1.22; for `O=C(O)C(S)C(S)C(=O)O` (stereo unspecified): 1.2; for `CCn1nc(C(=O)O)c(=O)c2cc3c(cc21)OCO3` [Cinoxacin]: 0.0422.
Under `Cc1cc(/C=C/c2ccc3cc(N(C)C)ccc3[n+]2C)c(C)n1-c1ccccc1` stands 0.797; under `COCCOC(=O)C1=C(C)NC(C)=C(C(=O)OC/C=C/c2ccccc2)C1c1cccc([N+](=O)[O-])c1` (stereo unspecified) [Cilnidipine], 0.595; under `CC(C)=CCC/C(C)=C/CC/C(C)=C/CC/C(C)=C/CC/C(C)=C/CC/C(C)=C/CC/C(C)=C/CC/C(C)=C/CC/C(C)=C/CO`, 1.32.
The same measure for `CCCCNc1ccc(C(=O)OCCOCCOCCOCCOCCOCCOCCOCCOCCOC)cc1` [Benzonatate]: 0.735; for `Cc1ccc(Cl)c(Nc2ccccc2C(=O)O)c1Cl` [Meclofenamic acid sodium]: 1.29; for `Cc1ccc(Cl)c(Nc2ccccc2C(=O)O)c1Cl` [Meclofenamic acid sodium salt monohydrate]: 1.07.
The compound `O=C(NCCO[N+](=O)[O-])c1cccnc1` [Nicorandil] registered a normalized bacterial growth of 1.02.
As to `CCN1CCN(C(=O)N[C@@H](C(=O)N[C@@H]2C(=O)N3C(C(=O)O)=C(CSc4nnnn4C)CS[C@H]23)c2ccc(O)cc2)C(=O)C1=O` [Cefoperazone dihydrate], the normalized bacterial growth was 0.973.
Under `CCN1CCN(C(=O)N[C@@H](C(=O)N[C@@H]2C(=O)N3C(C(=O)O)=C(CSc4nnnn4C)CS[C@H]23)c2ccc(O)cc2)C(=O)C1=O` stands 1; under `CN(C)CCOc1ccc(/C(=C(/CCCl)c2ccccc2)c2ccccc2)cc1`, 1.68.
Under `CC(C(=O)O)c1ccc(N2Cc3ccccc3C2=O)cc1` (stereo unspecified) stands 0.867.
Under `CC1=Nc2ccc(Cl)cc2S(=O)(=O)N1` [Diazoxide] stands 0.979; under `Oc1ccc(OCc2ccccc2)cc1` [Monobenzone], 1.16.
Consider `CCCn1c(=O)c2c(ncn2C)n(CCC)c1=O` ["1,3-Dipropyl-7-methylxanthine"], for which the normalized bacterial growth was found to be 1.31.
The same measure for `C[C@H]1C[C@H]2[C@@H]3CCC4=CC(=O)C=C[C@]4(C)[C@@]3(F)[C@@H](O)C[C@]2(C)[C@@]1(O)C(=O)CO` [Betamethasone]: 1.085 ± 0.009; for `CC(C)C1=CC2=CC[C@@H]3[C@](C)(CCC[C@@]3(C)C(=O)O)[C@H]2CC1`: 1.1; for `C=CCN1CCc2c(cc(O)c(O)c2Br)[C@@H](c2ccccc2)C1` [R(+)-6-Bromo-APB hydrobromide]: 1.21.
Under `Cc1cccc(C#Cc2ccccc2)n1` [6-Methyl-2-(phenylethynyl)pyridine hydrochloride] stands 0.919.
In turn, `C[C@H](O)C(=O)Nc1c(I)c(C(=O)NC(CO)CO)c(I)c(C(=O)NC(CO)CO)c1I` [Iopamidol] yielded a normalized bacterial growth of 1.08.
The same measure for `O=c1cc[nH]c(=S)[nH]1`: 1.02; for `CC(C)CC(=O)N[C@H](C(=O)N[C@H](C(=O)N[C@@H](CC(C)C)[C@@H](O)CC(=O)N[C@@H](C)C(=O)N[C@@H](CC(C)C)[C@@H](O)CC(=O)O)C(C)C)C(C)C` [Pepstatin A]: 1.16.
Compound `O=C1CC2(CCCC2)CC(=O)N1CCCCN1CCN(c2ncccn2)CC1` [Buspirone hydrochloride] displayed a normalized bacterial growth of 1.11.
Under `CC[C@H]1OC(=O)[C@H](C)[C@@H](O[C@H]2C[C@@](C)(OC)[C@@H](O)[C@H](C)O2)[C@H](C)[C@@H](O[C@@H]2O[C@H](C)C[C@H](N(C)C)[C@H]2O)[C@](C)(O)C[C@@H](C)[C@@H]2N[C@@H](COCCOC)O[C@H]([C@H]2C)[C@]1(C)O` stands 0.895.

The record behind these values is the supplement of paper PMC10398353.
